# Results as given in PubChem BioAssay AID493014 (National Center for Advancing Translational Sciences (NCATS), 2011).
# Out of some 340,000 compounds screened, about 170 (0.05%) were called active. Inconclusive results, whose numbers are uncertain, are shown with a selection of clear calls. Calls follow the shape of the dose curve; as a rule, active = well fitted inhibition curve with a large enough effect in the signal ratio, with a control signal flat (not every such curve was filed as active); inconclusive = small, poorly fitted or top-dose-only effect, or effect the other way, or a change in a side signal; inactive = flat fitted curve, though single readings scatter; the % refers to the signal ratio. A potency beside an inconclusive call is a rough fit, not a confirmed value.
# Test: qHTS Assay to Find Inhibitors of Chronic Active B-Cell Receptor Signaling;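 as to activity change, negative = inhibition: plate controls were basal doxycycline-induced cells for no effect and cells given 10 µM MG132 for full effect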
# Settings: ABC-DLBCL IkBa-CBG/CBR reporter, luminescence ratio (green luciferase fused to IkBa over red control in TMD8 lymphoma cells), 4 h; activity change, negative = inhibition: at 46.1 µM (top of the series)
# Summary of the method: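 Doxycycline induced both beetle luciferases in TMD8 lymphoma cells; IKK-driven degradation limits the IkappaBalpha-fused green signal, while red luminescence normalises for cell number and nonspecific effects. Compounds tested up to 46 uM, 4 hrs.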
# Potency is read from the fitted curve at half-maximal effect.
SMILES,"activity change, negative = inhibition",Potency
CCCNC(=O)c1onc(CSc2ccccc2)c1C(=O)NCCC,inconclusive: 1.32%,–
CN(CC(=O)NCc1ccc(F)cc1)S(=O)(=O)c1ccc(Br)s1,inactive,–
O=C(OCc1ccccc1)c1cccc(-c2nnc(-c3ccccc3)o2)c1,inactive,–
CCOc1cc2[nH]c(=S)n(Cc3ccc(C(=O)NCCCN(CC)CC)cc3)c(=O)c2cc1OCC,–,"inconclusive: 22.4 µM [falling, single point]"
CC(=O)Nc1ccc(S(=O)(=O)Oc2ccc3c(c2)C(C)=CC(C)(C)N3)cc1,inactive,–
CCN1/C(=C/c2ccc3cc(C)ccc3[n+]2CC)Sc2ccccc21,–,"inconclusive: 18.4 µM [rising, partial curve, poor fit]"
CC(C)(C)OC(=O)CNC(=O)c1[nH]cnc1C(=O)NCC(=O)OCc1ccccc1,inactive,–
c1csc(Cn2nnnc2CN2CCN(c3nc4ccccc4s3)CC2)c1,–,"inconclusive: 35.5 µM [falling, partial curve, poor fit]"
COCCCNC(=O)c1ccc2c(c1)nc(C)n2-c1cccc(C)c1,inconclusive: -17.7%,–
O=C(Nc1ccc2snnc2c1)N1CCOCC1,inactive,–
CC(C)C(=O)Nc1ccc2nn(-c3ccccc3)nc2c1,inconclusive: 7.78%,–
COc1cccc(-c2nc(CS(=O)(=O)CC(=O)Nc3c(C)cccc3C)c(C)o2)c1,inactive,–
c1cnc(-c2nnc3n2CCCCC3)cn1,inactive,–
CC(C)[C@@H]1CC[C@@H](C)C[C@H]1OC(=O)C[n+]1cc(-c2ccc(Cl)cc2)n2c1CCCCC2,inconclusive: 16.8%,–
Cc1ccnc(NC(=O)CCC(=O)N(CC(=O)NCc2ccccc2)Cc2ccc(F)cc2)c1,–,"inconclusive: 22.4 µM [falling, partial curve, poor fit]"
CCn1c(SCC(=O)c2ccccc2)nc2c(c1=O)SC(C)C2 (configuration not stated),inconclusive: 5.03%,–
O=C(Nc1ccc(F)cc1F)Nc1ccc(F)cc1F,inconclusive: -2.49%,–
Fc1ccc(-c2nnc(Cc3nnc(-c4ccc(F)cc4)o3)o2)cc1,inactive,–
Cc1cc2cc(CNC(=S)Nc3ccc(OC(F)(F)F)cc3)ccc2n1C,inconclusive: 3.62%,–
Cc1ccccc1Cn1cc(/C=N/n2cnnc2)c2ccccc21,inconclusive: -17.4%,–
COc1ccc(NC(=O)Nc2ccc3c(c2)C(=O)N([C@@H](C)CO)C[C@@H](C)[C@@H](CN(C)S(=O)(=O)c2cn(C)cn2)O3)cc1,inconclusive: 5.16%,–

# A different layout for part of the listing above:
SMILES | activity change, negative = inhibition | Potency
CCOc1cc2[nH]c(=S)n(Cc3ccc(C(=O)NCCCN(CC)CC)cc3)c(=O)c2cc1OCC | – | inconclusive: 22.4 µM [falling, single point]
CC(C)(C)OC(=O)CNC(=O)c1[nH]cnc1C(=O)NCC(=O)OCc1ccccc1 | inactive | –

# The list continues.

SMILES,"activity change, negative = inhibition",Potency
Cc1cc(C)n(C(=O)CCCC(=O)n2nc(C)cc2C)n1,inactive,–
CCOC(=O)C(=O)c1csc(NC(=O)CCSc2ccc(C)cc2)n1,inactive,–
C=C(C)CN(CC)C(=O)CCc1nnc(CCCc2ccccc2)o1,inactive,–
CCCCc1ccc(S(=O)(=O)N2CCN(C(=O)c3ccco3)CC2)cc1,inactive,–
Cc1cc2nccc(-c3ccc(Cl)cc3Cl)n2n1,inconclusive: 4.99%,–
CCn1c2ccccc2c2cc(NC(=O)c3ccc(=O)oc3)ccc21,–,"inconclusive: 0.631 µM [falling, full curve, poor fit]"
CCCCCC(=O)Nc1cccc(C2=NOC3(C2)C[C@@H](C(N)=O)N(C(=O)c2cc([N+](=O)[O-])cc([N+](=O)[O-])c2C)C3)c1 (some centres not stated),inactive,–
COc1ccc(C2=Nn3c(nnc3C3CCCCC3)SC2)cc1OC,–,"inconclusive: 5.8 µM [falling, partial curve]"
COC(=O)[C@H](CCSC)NC(=O)Cn1cnc(C(=O)Nc2ccc(C)c(C)c2)n1,inactive,–
COC(/C=C/Nc1ccc(Cl)cc1)=C(C#N)C#N,inactive,–
O=C(O)CNC(=O)C1COc2ccccc2O1 (configuration not stated),inconclusive: -0.684%,–
Nc1ccc2nc(-c3ccccc3)[nH]c2c1,–,"inconclusive: 11.2 µM [falling, partial curve]"
CC(=O)Nc1ccc(-c2csc(NC(=O)C3CCN(S(=O)(=O)c4cccs4)CC3)n2)cc1,inconclusive: -0.502%,–
CC(NCCS(=O)(=O)c1ccc(Cl)cc1)c1cccc(Cl)c1 (configuration not stated),inactive,–
O=C(CN(CCc1ccccc1)C(=O)c1csnn1)NC1CCCC1,inconclusive: 11.5%,–
O=C(OCC(=O)N1CCCC1)c1cccc(Br)c1,–,"inconclusive: 35.5 µM [falling, single point]"
O=C(CN1C(=O)NC2(CCCCCCC2)C1=O)Nc1ccc(Br)cc1,inconclusive: 0.472%,–
COc1ccc(-n2c(Cc3cccn3C)nnc2SCC(=O)N2CCCc3ccccc32)cc1,inconclusive: 4.52%,–
O=C(/C=C/Nc1cccc([N+](=O)[O-])c1)c1cccs1,–,"inconclusive: 20.6 µM [falling, partial curve]"
Oc1ccc(-c2csc(Nc3ncccn3)n2)cc1,–,"inconclusive: 35.5 µM [rising, single point]"
CCOc1ccc(NC(=O)c2sccc2-n2cccc2)cc1,inactive,–

# Record cards, from the list above.
# CCCCCC(=O)Nc1cccc(C2=NOC3(C2)C[C@@H](C(N)=O)N(C(=O)c2cc([N+](=O)[O-])cc([N+](=O)[O-])c2C)C3)c1 (some centres not stated) as listed: activity change, negative = inhibition: inactive
# CCOc1cc2[nH]c(=S)n(Cc3ccc(C(=O)NCCCN(CC)CC)cc3)c(=O)c2cc1OCC as listed: Potency: inconclusive: 22.4 µM [falling, single point]

# Remaining list, next part:

SMILES,"activity change, negative = inhibition",Potency
O=c1c2cc(NC(=S)NCCCN3CCC(Cc4ccccc4)CC3)ccc2nc2n1CCCCC2,inconclusive: -1.54%,–
CN1CCCC1CCNc1ccc2oc3ccccc3c(=O)c2c1 (configuration not stated),inconclusive: 2.44%,–
CCN(CC(=O)Nc1ccc2c(c1)OCCO2)C(=O)CC1CCCC1,inconclusive: -0.769%,–
Cc1cc(OCCn2cc(/C(N)=N/O)c3ccccc32)ccc1Cl,inconclusive: -3.54%,–
Cc1cc(C)c2c(N)c(C(=O)N/N=C/c3ccccc3)sc2n1,inconclusive: 10.9%,–
COc1ccc(S(=O)(=O)/N=C2\C=C(Nc3ccc(O)cc3)C(=O)c3ccccc32)cc1,–,"inconclusive: 0.631 µM [falling, full curve, poor fit]"
Cc1cc2nc(-c3ccc(SCc4ccccn4)nc3)[nH]c2cc1C,inconclusive: -24.6%,–
NC(=O)Cc1ccc(Nc2nnc(-c3ccccc3)c3ccccc23)cc1,–,"inconclusive: 23.1 µM [falling, partial curve]"
COc1ccc(CN2CCN(C(=O)c3cccc4ccccc34)CC2)cc1Br,inconclusive: -8.98%,–
Cc1ccc(NC(=O)c2[nH]cnc2C(=O)NN)cc1,–,"inconclusive: 14.1 µM [falling, partial curve, poor fit]"
COc1cccc(C(=O)N2CCN(Cc3cccc(F)c3)CC2)c1,inconclusive: 6.97%,–
O=C(Nc1ccc2c(c1)OCO2)c1cc(C2CC2)on1,–,"inconclusive: 16.4 µM [falling, partial curve]"
COC(=O)c1sccc1NC(=O)COc1ccc(C)cc1,inconclusive: -7.11%,–
NS(=O)(=O)c1ccc(CCNc2ccc(C(F)(F)F)cn2)cc1,inconclusive: 17.9%,–
COc1ccccc1NC(=O)CSc1nnc(Cn2cnc3ccccc32)n1C,inconclusive: -1.58%,–
CCOC(=O)CNC(=O)CSc1cc(C)nc2ccc(OC)cc12,inconclusive: -28.5%,–
O=C(c1ccc2c(=O)n3c(nc2c1)CCCCC3)N1CCCCC1,inactive,–
CCC(c1nnnn1CCc1ccccc1)N(Cc1ccco1)Cc1cc2cccc(C)c2[nH]c1=O (configuration not stated),inconclusive: -1.51%,–
COc1ccc(/C=C/c2ccc3cccc(O)c3n2)c(OC)c1OC,–,"inconclusive: 28.2 µM [falling, single point]"
S=c1[nH]nc(C2CCCCC2)n1/N=C/c1cccs1,inactive,–
O=C(N/N=C/c1cc(Br)cs1)c1c[nH]c2ccccc12,–,"inconclusive: 22.4 µM [falling, partial curve]"

SMILES,"activity change, negative = inhibition",Potency
O=C1CSC(c2cccc([N+](=O)[O-])c2)N1CCc1ccccc1 (configuration not stated),inactive,–
NC(N)=NC1=NC(=O)C(Cc2ccccc2)S1 (configuration not stated),inconclusive: -1.13%,–
CCN(CC)C(=O)C1CCN(c2ncnc3c2cnn3-c2ccc(C)cc2C)CC1,inactive,–
CCOC(=O)CNc1nc(Cl)nc(Nc2ccccc2)n1,–,"inconclusive: 6.31 µM [rising, partial curve, poor fit]"
CN(C(=O)Cn1nnc(-c2ccc(F)cc2)n1)C1CCS(=O)(=O)C1 (configuration not stated),inconclusive: -14.9%,–
CC(C)(C)NC(=O)CN(C(=O)c1snc(C(=O)NC2CCCCC2)c1N)c1ccccc1F,inactive,–
CC1CN(c2nc3ccccn3c(=O)c2C=O)CC(C)O1 (configuration not stated),inactive,–
O=C1C=C(c2cc(C(F)(F)F)cc(C(F)(F)F)c2)C[C@@H](c2ccc3c(c2)OCO3)C1,inconclusive: 1.61%,–
Cc1cccc(Nc2nnc(SCC(=O)Nc3ccc(C(=O)O)cc3)s2)c1,–,"inconclusive: 11.2 µM [falling, partial curve, poor fit]"
Fc1ccc(CNC(=S)Nc2ccc(Cl)cc2)cc1,inconclusive: 21.6%,–
CSc1ccc(C(c2c(C)[nH][nH]c2=O)c2c(C)[nH][nH]c2=O)cc1,–,"inconclusive: 12.6 µM [falling, single point]"
CCN(CC(=O)NCc1ccc(F)cc1)C(=O)COc1ccc(C)c(C)c1,inconclusive: 1.92%,–
CCN(CC)c1ccc2c(O)cc(=O)oc2c1,inactive,–
CC(C)CN1CCC(=O)N(CCN=[N+]=[N-])CC1,inconclusive: -44.1%,–
COc1ccc(/C(C)=N/NC(=O)c2ccccc2OCc2ccccc2)c(OC)c1,–,"inconclusive: 6.31 µM [falling, partial curve]"
COCCCNC(=O)C(=O)Nc1ccc2c(c1)N(S(=O)(=O)c1cccs1)CCC2,–,"inconclusive: 16.4 µM [falling, partial curve]"
Cc1ccc(OCc2cc(C(=O)N(C)Cc3cc(C4CC4)n[nH]3)no2)cc1C,inconclusive: -8.02%,–
CC(O)CN(C)CC/C=C1/c2ccccc2CSc2ccccc21 (configuration not stated),inconclusive: -1.36%,–
Cc1ccccc1OCC(=O)NCC(=O)OCC(=O)c1ccc2ccccc2c1,–,"inconclusive: 35.5 µM [falling, single point]"
